Measured values taken from article PMC5521874.
Positions count from the first letter of the chain named. Names and notes keep the numbering of the source. No constants are given. Whether binding was seen depends on the method and setting. For part of these data: In cells and extracts the contact can be indirect. Some entries that bind do so weakly or less than the wild type. Where a sequence is shown, tags or fusion partners need not be part of it.

Key:
[1] = target: T1, YFP-claudin-10b WT / CFP-claudin-10b WT (human) (UniProt P78369); assay: FRET or BRET; cis-interaction; MDCK-C7 cells (with endogenous claudins and TJs) expressing CFP- and YFP-tagged claudin-10b; FRET efficiency plotted against YFP/CFP ratio
T1 sequence: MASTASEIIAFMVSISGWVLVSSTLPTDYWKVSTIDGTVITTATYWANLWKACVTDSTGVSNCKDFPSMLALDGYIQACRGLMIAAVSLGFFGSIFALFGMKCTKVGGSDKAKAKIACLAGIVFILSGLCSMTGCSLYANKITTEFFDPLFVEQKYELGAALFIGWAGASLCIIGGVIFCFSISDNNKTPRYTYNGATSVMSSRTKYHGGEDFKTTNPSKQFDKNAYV

[2] = target: T1, YFP-claudin-10b WT / CFP-claudin-10b WT (human); assay: FRET or BRET; cis-interaction; HEK293 cells co-transfected with CFP- and YFP-claudin-10b plasmids; acceptor bleaching at cell-cell contacts; FRET efficiency plotted against YFP/CFP ratio
[3] = target: T1, YFP-claudin-10b WT / CFP-claudin-10b WT (human); assay: cellular contact enrichment assay (live cell imaging); trans-interaction; transiently transfected HEK293 cells (no TJs); enrichment factor of fluorescence at contacts between two claudin-expressing cells; HBSS pH 7.4
[4] = target: T1, YFP-claudin-10b WT / CFP-claudin-10b WT (human); assay: cellular contact enrichment assay (live cell imaging); trans-interaction; stable HEK293 lines, co-cultures of cells expressing either YFP- or CFP-fusion proteins; enrichment of co-localized YFP and CFP at mixed cell contacts (enrichment factor x length)
[5] = target: claudin-10b-wt-AcGFP (human) (UniProt P78369); assay: cellular contact enrichment assay (live cell imaging); trans-interaction; transiently transfected HEK293 cells (no TJs); enrichment factor of fluorescence at contacts between two claudin-expressing cells; HBSS pH 7.4

B1: YFP-claudin-10b WT / CFP-claudin-10b WT (protein, UniProt P78369-1 1-228)
chain: T1 sequence
For B1, the binding [1] was “binds”, the binding [2] was “binds” and the binding [3] was “binds”. For the same binder, the binding [4] was “binds”.

B2: YFP-claudin-10b N48K / CFP-claudin-10b N48K (protein, UniProt P78369-1 1-228)
chain: T1 sequence with N48K
For B2, the binding [2] was “binds”.

B3: claudin-10b-wt-AcGFP (protein, UniProt P78369-1 1-228)
chain: T1 sequence
For B3, the binding [5] was “binds”.
